The values that follow come from doi:10.1101/2025.09.23.678005.

By UniProt entry, the sequences of proteins in these tests, tags left out.
UniProt Q7Z333: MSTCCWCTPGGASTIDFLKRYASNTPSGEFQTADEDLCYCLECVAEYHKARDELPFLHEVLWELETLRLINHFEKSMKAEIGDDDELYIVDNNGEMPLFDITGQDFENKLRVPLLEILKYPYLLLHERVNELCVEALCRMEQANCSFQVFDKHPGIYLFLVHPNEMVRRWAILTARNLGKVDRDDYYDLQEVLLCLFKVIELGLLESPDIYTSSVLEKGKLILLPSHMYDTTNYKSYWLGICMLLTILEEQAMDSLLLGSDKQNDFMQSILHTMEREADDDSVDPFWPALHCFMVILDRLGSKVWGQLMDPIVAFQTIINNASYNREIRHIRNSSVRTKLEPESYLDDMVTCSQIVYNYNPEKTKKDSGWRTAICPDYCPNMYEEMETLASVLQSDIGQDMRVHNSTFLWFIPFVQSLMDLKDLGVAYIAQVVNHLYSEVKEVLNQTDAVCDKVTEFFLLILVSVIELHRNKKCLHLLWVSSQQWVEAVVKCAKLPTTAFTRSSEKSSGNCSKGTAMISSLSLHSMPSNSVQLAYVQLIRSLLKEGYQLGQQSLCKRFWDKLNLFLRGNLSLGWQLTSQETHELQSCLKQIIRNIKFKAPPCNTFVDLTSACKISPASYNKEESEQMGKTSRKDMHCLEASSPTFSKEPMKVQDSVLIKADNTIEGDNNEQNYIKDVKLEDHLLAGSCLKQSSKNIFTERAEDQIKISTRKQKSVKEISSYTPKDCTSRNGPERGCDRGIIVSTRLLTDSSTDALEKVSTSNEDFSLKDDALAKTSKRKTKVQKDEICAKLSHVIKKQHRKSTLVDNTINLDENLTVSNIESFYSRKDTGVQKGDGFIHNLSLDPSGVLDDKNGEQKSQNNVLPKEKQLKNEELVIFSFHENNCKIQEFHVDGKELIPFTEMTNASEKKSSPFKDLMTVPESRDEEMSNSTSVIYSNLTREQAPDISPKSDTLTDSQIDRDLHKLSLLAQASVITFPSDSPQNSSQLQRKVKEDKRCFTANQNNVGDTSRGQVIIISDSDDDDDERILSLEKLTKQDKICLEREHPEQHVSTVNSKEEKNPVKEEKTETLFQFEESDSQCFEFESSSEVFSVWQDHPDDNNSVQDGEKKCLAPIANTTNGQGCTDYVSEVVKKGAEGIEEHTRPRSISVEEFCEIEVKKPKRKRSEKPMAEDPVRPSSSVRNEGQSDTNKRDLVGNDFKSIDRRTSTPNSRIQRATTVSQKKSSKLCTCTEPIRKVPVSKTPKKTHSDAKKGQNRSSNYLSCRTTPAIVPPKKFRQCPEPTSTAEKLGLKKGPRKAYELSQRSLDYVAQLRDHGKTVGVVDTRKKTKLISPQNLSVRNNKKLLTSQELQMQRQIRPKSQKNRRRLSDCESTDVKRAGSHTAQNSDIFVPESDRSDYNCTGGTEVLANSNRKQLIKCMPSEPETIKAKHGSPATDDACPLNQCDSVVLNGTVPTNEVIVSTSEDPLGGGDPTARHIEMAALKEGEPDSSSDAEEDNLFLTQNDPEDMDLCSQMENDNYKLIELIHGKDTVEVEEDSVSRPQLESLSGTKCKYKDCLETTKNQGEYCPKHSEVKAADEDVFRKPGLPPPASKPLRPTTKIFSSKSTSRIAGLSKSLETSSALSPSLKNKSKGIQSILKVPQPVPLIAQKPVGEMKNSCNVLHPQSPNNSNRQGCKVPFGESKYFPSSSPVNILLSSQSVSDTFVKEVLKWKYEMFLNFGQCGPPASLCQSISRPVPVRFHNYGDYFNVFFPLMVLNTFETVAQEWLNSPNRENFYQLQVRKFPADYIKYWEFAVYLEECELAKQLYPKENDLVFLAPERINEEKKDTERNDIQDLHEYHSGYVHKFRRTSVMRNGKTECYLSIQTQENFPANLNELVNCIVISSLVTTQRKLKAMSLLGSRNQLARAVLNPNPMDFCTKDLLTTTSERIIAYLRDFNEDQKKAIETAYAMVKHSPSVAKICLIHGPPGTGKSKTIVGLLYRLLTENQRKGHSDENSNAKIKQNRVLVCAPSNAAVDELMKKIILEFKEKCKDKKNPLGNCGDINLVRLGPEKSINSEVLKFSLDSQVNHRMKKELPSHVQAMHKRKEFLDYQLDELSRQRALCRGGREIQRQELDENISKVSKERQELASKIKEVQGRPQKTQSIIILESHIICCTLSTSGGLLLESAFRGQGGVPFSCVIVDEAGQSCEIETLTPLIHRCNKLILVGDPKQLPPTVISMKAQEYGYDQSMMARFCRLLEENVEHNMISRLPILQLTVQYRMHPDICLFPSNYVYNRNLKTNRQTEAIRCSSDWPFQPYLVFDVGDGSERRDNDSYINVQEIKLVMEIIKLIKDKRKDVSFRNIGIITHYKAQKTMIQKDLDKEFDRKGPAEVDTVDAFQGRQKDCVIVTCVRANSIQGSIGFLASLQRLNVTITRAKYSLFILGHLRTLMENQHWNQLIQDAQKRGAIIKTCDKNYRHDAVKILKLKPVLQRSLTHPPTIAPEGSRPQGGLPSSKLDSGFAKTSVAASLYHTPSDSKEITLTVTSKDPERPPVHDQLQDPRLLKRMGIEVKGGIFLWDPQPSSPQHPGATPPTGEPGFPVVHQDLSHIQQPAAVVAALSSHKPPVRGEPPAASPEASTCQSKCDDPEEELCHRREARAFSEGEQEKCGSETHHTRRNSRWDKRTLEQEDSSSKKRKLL
UniProt Q12888: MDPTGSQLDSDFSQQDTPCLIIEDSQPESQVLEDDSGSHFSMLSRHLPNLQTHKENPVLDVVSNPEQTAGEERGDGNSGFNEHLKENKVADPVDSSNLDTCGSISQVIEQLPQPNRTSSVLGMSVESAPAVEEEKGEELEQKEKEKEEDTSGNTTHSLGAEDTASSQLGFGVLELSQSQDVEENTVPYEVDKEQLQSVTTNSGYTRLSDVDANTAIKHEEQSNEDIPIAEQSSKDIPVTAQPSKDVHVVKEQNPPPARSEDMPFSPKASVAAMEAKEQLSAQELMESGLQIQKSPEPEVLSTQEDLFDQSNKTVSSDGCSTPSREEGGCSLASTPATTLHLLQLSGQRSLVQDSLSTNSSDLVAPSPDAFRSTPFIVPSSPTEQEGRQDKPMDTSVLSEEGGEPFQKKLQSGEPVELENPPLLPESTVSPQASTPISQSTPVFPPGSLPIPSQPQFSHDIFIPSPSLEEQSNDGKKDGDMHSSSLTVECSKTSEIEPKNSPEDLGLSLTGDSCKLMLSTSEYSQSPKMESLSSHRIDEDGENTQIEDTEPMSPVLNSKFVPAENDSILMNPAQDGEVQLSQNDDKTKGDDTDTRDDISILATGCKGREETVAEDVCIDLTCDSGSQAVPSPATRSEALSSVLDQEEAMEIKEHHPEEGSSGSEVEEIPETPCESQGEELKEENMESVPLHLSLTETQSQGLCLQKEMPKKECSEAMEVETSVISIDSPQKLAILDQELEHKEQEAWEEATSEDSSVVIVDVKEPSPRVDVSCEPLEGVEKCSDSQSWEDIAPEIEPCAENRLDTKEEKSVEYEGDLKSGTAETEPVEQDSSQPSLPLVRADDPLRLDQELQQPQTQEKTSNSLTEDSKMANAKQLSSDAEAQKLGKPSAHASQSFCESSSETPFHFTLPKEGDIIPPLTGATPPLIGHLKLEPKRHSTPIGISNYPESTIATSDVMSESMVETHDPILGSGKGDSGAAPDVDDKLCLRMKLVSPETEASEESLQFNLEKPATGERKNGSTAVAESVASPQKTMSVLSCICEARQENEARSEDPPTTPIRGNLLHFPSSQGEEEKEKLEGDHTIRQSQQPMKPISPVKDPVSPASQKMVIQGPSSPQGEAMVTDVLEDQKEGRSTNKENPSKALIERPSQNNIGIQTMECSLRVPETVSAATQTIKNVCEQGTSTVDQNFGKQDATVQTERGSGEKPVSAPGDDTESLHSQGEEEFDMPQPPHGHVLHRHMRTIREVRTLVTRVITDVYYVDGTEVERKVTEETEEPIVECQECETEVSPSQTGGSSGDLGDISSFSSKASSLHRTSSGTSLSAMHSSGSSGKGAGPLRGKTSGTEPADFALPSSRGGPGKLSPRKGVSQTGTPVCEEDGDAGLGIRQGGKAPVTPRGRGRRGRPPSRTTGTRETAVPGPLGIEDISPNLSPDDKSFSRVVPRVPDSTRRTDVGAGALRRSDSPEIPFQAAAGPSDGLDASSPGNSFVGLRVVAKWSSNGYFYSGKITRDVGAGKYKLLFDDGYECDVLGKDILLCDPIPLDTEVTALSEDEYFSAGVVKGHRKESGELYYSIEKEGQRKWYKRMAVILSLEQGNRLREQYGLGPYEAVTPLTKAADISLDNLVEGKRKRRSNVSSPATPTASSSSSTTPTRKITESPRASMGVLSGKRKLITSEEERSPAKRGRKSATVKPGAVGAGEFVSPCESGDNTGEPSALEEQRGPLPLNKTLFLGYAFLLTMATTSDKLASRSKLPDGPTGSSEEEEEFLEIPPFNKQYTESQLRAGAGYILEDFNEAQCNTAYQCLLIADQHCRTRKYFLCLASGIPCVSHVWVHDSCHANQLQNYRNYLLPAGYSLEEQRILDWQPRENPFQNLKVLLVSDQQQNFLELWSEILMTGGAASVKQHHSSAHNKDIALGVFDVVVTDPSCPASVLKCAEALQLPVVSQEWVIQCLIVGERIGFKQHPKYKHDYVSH

The assay addresses Senataxin (human (endogenous in PBMCs)) (UniProt Q7Z333). The assay can be described thus: co-IP.

No constants are given. Whether binding was seen depends on the method and setting. In cells and extracts the contact can be indirect. Some entries that bind do so weakly or less than the wild type.

In the case of “Tumor Suppressor p53-Binding Protein 1 (from UniProt Q12888 1-1972)”, the binding entry is “binds”.
